PubChem BioAssay AID1259308, NCATS, 2017
Assay: 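Knock-downs that increase output of a recombinant reporter protein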 (primary screen). System: human HEK293 embryonic kidney cells stably expressing firefly luciferase (HEK-CMV-Luc2-Hygro). Knock-down reagent: single siRNA against human genes, 0.8 pmol siRNA per well. Timing: 72 h. Measured: 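Reporter luminescence and viable-cell signal on separate replicate plates, given as percent of non-targeting control and median/MAD z-scores, plus per-cell luciferase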. Scale: total luciferase, z-score and total luciferase, % of control: higher = more reporter protein produced. Active means: 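An siRNA counts as active if its total luciferase robust z-score exceeds 3; genes with two or more such siRNAs out of three were retested with fresh siRNAs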. Meaning of the calls: active = raised luciferase; inactive = no rise.
Here is an unselected part of about 59,000 deposited reagents. Of all reagents, about 1,510 (2.6%) were called active. 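Calls use total luciferase alone and ignore viability, so some active siRNAs may act by altering cell number.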 Reagents against one gene are numbered here. Not all columns of the deposit are shown.

With knock-down of RSPH4A #1, the screen gave total luciferase, z-score -0.979; total luciferase, % of control 62.4; inactive. Silencing of RSPH4A #2 resulted in: total luciferase, z-score -1.8; total luciferase, % of control 46.1; inactive. After knock-down of RSPH4A #3 the results were total luciferase, z-score -0.486; total luciferase, % of control 72.2; inactive. TMED5 #1 showed total luciferase, z-score -1.18; total luciferase, % of control 58.4; inactive. Depletion of TMED5 #2 came out at: total luciferase, z-score -0.583; total luciferase, % of control 70.3; inactive. For TMED5 #3, the values are total luciferase, z-score 0.29; total luciferase, % of control 87.7; inactive.

LOC729900 #1 showed total luciferase, z-score -0.65; total luciferase, % of control 69; inactive. For LOC729900 #2 the deposit lists total luciferase, z-score 1.73; total luciferase, % of control 116; inactive. For LOC729900 #3, the entry reads total luciferase, z-score 0.707; total luciferase, % of control 96; inactive. With knock-down of ATP13A1 #1, the screen gave total luciferase, z-score 0.744; total luciferase, % of control 96.7; inactive. ATP13A1 #2 showed total luciferase, z-score 1.07; total luciferase, % of control 103; inactive. ATP13A1 #3 scored total luciferase, z-score -0.058; total luciferase, % of control 80.7; inactive.

With knock-down of TGFBRAP1 #1, the record shows total luciferase, z-score -0.628; total luciferase, % of control 69.4; inactive. TGFBRAP1 #2 showed total luciferase, z-score -0.34; total luciferase, % of control 75.1; inactive. TGFBRAP1 #3 gave total luciferase, z-score -0.203; total luciferase, % of control 77.9; inactive. Depletion of NECTIN4 #1 gave: total luciferase, z-score -0.255; total luciferase, % of control 76.8; inactive. Silencing of NECTIN4 #2 came out at: total luciferase, z-score -1.31; total luciferase, % of control 55.8; inactive. Silencing of NECTIN4 #3 resulted in: total luciferase, z-score 0.443; total luciferase, % of control 90.7; inactive.

FXR1 #1 showed total luciferase, z-score -0.369; total luciferase, % of control 74.6; inactive. Against FXR1 #2 the deposit lists total luciferase, z-score -0.718; total luciferase, % of control 67.6; inactive. Against FXR1 #3, the values are total luciferase, z-score -1.01; total luciferase, % of control 61.8; inactive. For ZNF618 #1 the deposit lists total luciferase, z-score -0.53; total luciferase, % of control 71.3; inactive. With knock-down of ZNF618 #2 the results were total luciferase, z-score 1.37; total luciferase, % of control 109; inactive. ZNF618 #3 gave total luciferase, z-score 0.315; total luciferase, % of control 88.2; inactive.

For LOC728158 #1, the entry reads total luciferase, z-score 1.83; total luciferase, % of control 118; inactive. Depletion of LOC728158 #2 resulted in: total luciferase, z-score -1.39; total luciferase, % of control 54.3; inactive. Against LOC728158 #3 the deposit lists total luciferase, z-score -1.87; total luciferase, % of control 44.7; inactive. Knock-down of SYDE1 #1 gave: total luciferase, z-score -0.594; total luciferase, % of control 70.1; inactive. Against SYDE1 #2, the values are total luciferase, z-score 0.0626; total luciferase, % of control 83.1; inactive. SYDE1 #3 showed total luciferase, z-score -0.276; total luciferase, % of control 76.4; inactive.

For BCORL1 #1 the deposit lists total luciferase, z-score 0.679; total luciferase, % of control 95.4; inactive. Knock-down of BCORL1 #2 gave: total luciferase, z-score -1.22; total luciferase, % of control 57.6; inactive. Against BCORL1 #3, the entry reads total luciferase, z-score 0.117; total luciferase, % of control 84.2; inactive.

An excerpt taken from the entries so far, as a working copy:
LOC728158 #3 | total luciferase, z-score: -1.87; total luciferase, % of control: 44.7; activity call: inactive
SYDE1 #1 | total luciferase, z-score: -0.594; total luciferase, % of control: 70.1; activity call: inactive
SYDE1 #2 | total luciferase, z-score: 0.0626; total luciferase, % of control: 83.1; activity call: inactive
SYDE1 #3 | total luciferase, z-score: -0.276; total luciferase, % of control: 76.4; activity call: inactive
BCORL1 #1 | total luciferase, z-score: 0.679; total luciferase, % of control: 95.4; activity call: inactive
